The supplement of paper PMC12819154, “High-throughput peptide-centric local stability assay extends protein–ligand identification to membrane proteins, tissues and bacteria” (Nature Structural & Molecular Biology, 2025)
This is a selection; strong and weak results do not stand in their true shares. Small differences around the control level are noise.

Amino acid sequences for entries named in this document (tags omitted). A change or cut given only in a name is not applied to a line headed by its entry.
UniProt P00894: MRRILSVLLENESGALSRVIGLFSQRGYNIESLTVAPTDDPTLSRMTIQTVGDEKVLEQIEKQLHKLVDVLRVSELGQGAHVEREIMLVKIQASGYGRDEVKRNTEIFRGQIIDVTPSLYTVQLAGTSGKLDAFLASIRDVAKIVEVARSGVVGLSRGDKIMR
UniProt P02918: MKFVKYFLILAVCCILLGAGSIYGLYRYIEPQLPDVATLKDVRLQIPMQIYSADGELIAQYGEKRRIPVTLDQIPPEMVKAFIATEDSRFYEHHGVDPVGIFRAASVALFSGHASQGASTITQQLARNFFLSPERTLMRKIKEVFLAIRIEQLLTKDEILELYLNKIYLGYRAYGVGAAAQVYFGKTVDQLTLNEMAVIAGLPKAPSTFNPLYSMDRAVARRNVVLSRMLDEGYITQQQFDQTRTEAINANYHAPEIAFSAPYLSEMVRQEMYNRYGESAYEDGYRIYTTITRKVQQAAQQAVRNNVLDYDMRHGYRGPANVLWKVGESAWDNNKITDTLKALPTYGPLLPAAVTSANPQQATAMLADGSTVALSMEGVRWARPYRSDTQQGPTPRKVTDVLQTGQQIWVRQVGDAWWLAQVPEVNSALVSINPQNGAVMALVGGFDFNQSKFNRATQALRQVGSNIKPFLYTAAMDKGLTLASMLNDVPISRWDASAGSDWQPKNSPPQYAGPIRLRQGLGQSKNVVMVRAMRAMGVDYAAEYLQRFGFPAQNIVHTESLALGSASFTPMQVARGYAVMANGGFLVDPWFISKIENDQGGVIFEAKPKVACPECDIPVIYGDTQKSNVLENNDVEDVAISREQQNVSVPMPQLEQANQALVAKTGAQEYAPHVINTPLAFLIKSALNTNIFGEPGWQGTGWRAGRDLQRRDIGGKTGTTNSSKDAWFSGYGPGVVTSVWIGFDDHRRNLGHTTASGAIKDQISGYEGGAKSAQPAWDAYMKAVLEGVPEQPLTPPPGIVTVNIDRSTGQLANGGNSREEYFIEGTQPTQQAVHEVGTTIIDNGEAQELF
UniProt P05824: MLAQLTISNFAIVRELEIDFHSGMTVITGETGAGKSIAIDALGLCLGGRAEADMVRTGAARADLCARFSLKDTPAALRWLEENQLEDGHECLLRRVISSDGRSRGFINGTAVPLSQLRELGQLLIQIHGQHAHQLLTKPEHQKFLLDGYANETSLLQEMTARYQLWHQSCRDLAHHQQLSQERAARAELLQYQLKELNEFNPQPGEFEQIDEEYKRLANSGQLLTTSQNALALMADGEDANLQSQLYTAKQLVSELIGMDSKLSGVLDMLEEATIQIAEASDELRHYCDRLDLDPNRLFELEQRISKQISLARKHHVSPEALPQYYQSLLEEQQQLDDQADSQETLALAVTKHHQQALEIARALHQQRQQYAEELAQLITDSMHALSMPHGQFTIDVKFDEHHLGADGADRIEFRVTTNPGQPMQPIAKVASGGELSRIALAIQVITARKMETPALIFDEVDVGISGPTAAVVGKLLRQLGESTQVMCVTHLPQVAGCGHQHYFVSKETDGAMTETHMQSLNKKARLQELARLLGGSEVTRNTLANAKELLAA
UniProt P02931: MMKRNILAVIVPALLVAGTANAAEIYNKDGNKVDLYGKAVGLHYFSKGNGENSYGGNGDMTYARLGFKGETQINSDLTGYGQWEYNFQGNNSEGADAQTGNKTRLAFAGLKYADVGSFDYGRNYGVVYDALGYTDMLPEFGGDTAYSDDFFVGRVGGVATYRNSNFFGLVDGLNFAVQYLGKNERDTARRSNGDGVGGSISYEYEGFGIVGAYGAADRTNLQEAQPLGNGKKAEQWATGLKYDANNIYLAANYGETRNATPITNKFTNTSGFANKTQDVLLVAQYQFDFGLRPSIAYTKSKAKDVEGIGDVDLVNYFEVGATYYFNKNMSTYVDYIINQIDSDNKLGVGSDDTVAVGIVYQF
UniProt P02924: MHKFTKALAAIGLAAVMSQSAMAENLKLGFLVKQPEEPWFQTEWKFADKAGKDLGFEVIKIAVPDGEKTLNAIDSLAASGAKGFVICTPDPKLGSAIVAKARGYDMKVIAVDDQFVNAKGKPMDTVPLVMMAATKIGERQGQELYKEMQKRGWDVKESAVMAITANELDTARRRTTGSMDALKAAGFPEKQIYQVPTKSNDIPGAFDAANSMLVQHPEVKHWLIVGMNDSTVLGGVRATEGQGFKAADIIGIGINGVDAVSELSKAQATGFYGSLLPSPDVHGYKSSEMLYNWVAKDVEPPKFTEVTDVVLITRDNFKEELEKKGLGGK
UniProt P05706: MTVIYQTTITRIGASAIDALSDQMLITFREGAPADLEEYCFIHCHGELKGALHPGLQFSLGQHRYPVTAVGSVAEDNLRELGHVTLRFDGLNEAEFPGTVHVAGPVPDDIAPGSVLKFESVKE
UniProt P00634, whole entry: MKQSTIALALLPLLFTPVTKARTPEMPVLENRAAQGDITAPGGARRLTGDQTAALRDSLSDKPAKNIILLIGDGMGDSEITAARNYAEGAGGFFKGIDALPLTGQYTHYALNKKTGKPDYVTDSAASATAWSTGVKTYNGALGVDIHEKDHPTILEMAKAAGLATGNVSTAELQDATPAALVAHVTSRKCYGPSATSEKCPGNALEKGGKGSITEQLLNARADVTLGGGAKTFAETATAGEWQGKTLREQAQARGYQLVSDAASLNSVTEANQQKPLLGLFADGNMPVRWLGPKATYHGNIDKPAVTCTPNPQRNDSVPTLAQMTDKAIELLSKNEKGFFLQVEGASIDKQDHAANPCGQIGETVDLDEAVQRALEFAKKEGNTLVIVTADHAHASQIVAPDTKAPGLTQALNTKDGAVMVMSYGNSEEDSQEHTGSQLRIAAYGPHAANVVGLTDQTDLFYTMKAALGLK
UniProt P00935: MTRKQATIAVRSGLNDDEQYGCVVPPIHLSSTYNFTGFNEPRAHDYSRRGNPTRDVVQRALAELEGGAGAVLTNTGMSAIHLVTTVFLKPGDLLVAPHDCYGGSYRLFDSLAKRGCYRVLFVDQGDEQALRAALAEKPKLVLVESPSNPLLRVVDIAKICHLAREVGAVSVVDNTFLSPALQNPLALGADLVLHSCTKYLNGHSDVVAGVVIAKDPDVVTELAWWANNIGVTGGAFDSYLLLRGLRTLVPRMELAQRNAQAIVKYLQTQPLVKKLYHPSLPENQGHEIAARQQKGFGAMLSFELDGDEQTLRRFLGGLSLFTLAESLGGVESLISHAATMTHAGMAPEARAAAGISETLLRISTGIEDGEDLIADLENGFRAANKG
UniProt P04391: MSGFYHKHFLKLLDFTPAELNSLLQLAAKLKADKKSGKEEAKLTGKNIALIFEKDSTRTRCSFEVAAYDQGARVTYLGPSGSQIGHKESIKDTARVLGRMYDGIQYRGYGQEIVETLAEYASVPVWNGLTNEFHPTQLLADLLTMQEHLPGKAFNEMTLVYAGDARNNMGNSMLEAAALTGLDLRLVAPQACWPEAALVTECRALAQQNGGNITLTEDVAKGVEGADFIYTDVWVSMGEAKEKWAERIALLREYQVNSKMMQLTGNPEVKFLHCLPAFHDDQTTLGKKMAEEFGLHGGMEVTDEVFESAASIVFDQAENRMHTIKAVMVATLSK
UniProt P02929: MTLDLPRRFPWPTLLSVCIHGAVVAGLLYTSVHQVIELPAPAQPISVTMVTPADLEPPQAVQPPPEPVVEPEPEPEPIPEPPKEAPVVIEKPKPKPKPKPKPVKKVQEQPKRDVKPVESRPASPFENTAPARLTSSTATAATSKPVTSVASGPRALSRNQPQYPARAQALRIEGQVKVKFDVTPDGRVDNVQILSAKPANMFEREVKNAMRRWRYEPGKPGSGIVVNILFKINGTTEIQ
UniProt P03030: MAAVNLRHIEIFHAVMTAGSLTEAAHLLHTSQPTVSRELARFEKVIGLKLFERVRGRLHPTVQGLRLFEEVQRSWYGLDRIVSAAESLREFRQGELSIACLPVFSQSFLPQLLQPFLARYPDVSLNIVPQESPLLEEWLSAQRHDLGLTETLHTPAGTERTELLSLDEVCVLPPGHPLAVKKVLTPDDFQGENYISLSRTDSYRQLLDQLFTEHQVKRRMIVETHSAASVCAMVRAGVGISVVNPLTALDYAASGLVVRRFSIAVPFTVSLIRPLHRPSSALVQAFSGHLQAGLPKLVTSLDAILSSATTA
UniProt P00895: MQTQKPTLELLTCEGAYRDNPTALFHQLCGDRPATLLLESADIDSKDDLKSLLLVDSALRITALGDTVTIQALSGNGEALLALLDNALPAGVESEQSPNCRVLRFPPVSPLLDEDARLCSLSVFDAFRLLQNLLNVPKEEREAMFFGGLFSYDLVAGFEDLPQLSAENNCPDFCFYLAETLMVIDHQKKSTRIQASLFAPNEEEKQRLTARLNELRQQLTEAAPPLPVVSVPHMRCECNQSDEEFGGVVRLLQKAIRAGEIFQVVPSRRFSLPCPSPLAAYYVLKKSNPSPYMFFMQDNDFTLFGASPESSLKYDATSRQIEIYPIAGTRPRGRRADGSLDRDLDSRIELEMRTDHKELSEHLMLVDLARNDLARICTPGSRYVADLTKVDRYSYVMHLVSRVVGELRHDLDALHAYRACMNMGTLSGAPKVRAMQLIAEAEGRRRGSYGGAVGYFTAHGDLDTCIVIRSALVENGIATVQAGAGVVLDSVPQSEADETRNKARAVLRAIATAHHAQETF
UniProt P05100: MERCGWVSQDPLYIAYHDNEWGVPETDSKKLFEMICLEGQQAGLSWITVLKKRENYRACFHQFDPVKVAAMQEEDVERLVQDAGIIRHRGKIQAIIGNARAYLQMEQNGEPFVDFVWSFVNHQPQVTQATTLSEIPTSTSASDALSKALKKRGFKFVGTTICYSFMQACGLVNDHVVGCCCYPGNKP
UniProt P05042: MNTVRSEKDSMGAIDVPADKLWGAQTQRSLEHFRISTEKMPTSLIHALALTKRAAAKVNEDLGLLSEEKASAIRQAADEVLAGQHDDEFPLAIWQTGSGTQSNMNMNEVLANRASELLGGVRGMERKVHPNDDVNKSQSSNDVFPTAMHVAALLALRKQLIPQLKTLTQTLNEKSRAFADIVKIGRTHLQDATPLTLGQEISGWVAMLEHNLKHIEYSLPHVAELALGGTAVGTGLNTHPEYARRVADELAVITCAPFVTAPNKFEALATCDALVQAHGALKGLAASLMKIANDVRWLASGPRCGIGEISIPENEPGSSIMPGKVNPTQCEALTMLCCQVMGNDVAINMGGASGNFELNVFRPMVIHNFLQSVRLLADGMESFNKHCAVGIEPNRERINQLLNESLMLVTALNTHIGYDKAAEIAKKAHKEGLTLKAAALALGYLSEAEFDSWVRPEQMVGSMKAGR
UniProt P00448: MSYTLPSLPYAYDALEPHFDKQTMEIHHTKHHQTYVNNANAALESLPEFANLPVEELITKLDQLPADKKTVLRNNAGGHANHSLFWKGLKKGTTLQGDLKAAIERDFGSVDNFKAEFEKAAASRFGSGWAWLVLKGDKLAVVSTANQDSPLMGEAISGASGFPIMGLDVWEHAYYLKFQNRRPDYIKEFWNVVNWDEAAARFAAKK
UniProt A5A607: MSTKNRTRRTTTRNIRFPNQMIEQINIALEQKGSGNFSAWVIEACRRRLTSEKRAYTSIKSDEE
UniProt P00803: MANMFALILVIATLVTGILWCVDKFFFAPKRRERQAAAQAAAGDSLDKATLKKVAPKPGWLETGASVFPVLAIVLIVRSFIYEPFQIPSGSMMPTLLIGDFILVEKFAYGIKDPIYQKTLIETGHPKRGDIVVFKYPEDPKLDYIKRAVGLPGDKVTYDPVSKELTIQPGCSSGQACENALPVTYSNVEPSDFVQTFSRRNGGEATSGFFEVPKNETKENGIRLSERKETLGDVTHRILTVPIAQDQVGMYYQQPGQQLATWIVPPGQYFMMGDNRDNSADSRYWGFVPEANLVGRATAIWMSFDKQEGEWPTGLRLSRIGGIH
UniProt P02942: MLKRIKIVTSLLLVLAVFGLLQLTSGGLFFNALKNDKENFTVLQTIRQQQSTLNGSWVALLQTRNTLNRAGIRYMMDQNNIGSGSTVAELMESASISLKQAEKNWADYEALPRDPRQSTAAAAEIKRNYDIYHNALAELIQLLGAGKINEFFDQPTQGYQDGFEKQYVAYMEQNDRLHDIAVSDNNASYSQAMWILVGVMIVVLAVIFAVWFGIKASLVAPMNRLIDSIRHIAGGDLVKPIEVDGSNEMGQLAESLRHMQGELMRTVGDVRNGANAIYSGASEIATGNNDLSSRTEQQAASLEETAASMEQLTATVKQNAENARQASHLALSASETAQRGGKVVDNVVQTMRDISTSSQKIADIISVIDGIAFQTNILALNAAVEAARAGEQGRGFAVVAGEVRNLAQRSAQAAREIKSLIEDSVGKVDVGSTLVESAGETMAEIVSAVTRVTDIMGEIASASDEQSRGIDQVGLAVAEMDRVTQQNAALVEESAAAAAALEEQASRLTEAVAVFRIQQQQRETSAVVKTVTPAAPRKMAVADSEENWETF

Compound: Nc1ncnc2c1ncn2[C@@H]1O[C@H](COP(=O)(O)OP(=O)(O)OP(=O)(O)O)[C@@H](O)[C@H]1O [adenosine 5'-triphosphate]
Assay: log2 fold change of tryptic peptide abundance, ligand vs vehicle (limited proteolysis) (log2 ratio); higher = more trypsin-susceptible (destabilized)
Details: ligand concentration: 5 mM; sample: E. coli desalted lysate; replicate design: treated before aliquoting
Description: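 HT-PELSA: desalted E. coli K-12 BW25113 lysate (with 12 mM MgCl2) incubated with 5 mM ATP (pH 7) or water for 30 min at 25 C, then a 4 min trypsin pulse at 22 C. Peptides were quantified by DIA-MS (4 replicates). Value is the peptide log2 fold change (treated/control); negative = stabilized. Scale: negative = ligand-stabilized region.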
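Further: lysate desalted by size exclusion to strip endogenous ATP, peptide intensities built from DIA-NN precursor signals, and peptides missing any value discarded before comparison.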

**Q.** Which log2 fold change does the source give for “UniProt P00894 (peptide sequence: LDAFLASIR, peptide start residue: 131)” here?
**A.** 0.674

**Q.** For “UniProt P02918 (peptide sequence: SDTQQGPTPR, peptide start residue: 387)”, which log2 fold change is on record?
**A.** -0.245

**Q.** With “UniProt P06136 (peptide sequence: NSEEEVSSR, peptide start residue: 10)” as the target, how does the log2 fold change read?
**A.** -0.153

**Q.** Which log2 fold change does the source give for “UniProt P02921 (peptide sequence: IQIHLLDKYR, peptide start residue: 443)” here?
**A.** 0.263

**Q.** How did the log2 fold change turn out when “UniProt P05052 (peptide sequence: LRDEGTSFTEILR, peptide start residue: 173)” was run?
**A.** 0.369

**Q.** How did the log2 fold change turn out when “UniProt P00370 (peptide sequence: HLGADTDVPAGDIGVGGR, peptide start residue: 157)” was run?
**A.** 0.419

**Q.** With “UniProt P05824 (peptide sequence: ETDGAMTETHMQSLNKK, peptide start residue: 508)” as the target, how does the log2 fold change read?
**A.** 0.359

**Q.** How did the log2 fold change turn out when “UniProt P02931 (peptide sequence: FTNTSGFANK, peptide start residue: 266)” was run?
**A.** 0.446

**Q.** “UniProt P02924 (peptide sequence: VIAVDDQFVNAK, peptide start residue: 108)” was tested. Which log2 fold change did it give?
**A.** -0.242

**Q.** With “UniProt P05706 (peptide sequence: GALHPGLQFSLGQHR, peptide start residue: 50)” as the target, how does the log2 fold change read?
**A.** -0.145

**Q.** With “UniProt P00634 (peptide sequence: AAQGDITAPGGAR, peptide start residue: 33)” as the target, how does the log2 fold change read?
**A.** 0.0274

**Q.** “UniProt P00935 (peptide sequence: AAAGISETLLR, peptide start residue: 351)” was tested. Which log2 fold change did it give?
**A.** -0.344

**Q.** For “UniProt P02920 (peptide sequence: RSNFEFGR, peptide start residue: 135)”, which log2 fold change is on record?
**A.** -0.33

**Q.** Which log2 fold change does the source give for “UniProt P06129 (peptide sequence: GTNASHVLVLIDGVR, peptide start residue: 90)” here?
**A.** -0.288

**Q.** How did the log2 fold change turn out when “UniProt P04391 (peptide sequence: VTYLGPSGSQIGHK, peptide start residue: 74)” was run?
**A.** -0.62

**Q.** How did the log2 fold change turn out when “UniProt P02929 (peptide sequence: EAPVVIEKPKPK, peptide start residue: 84)” was run?
**A.** -0.793

**Q.** For “UniProt P02930 (peptide sequence: TTTSNGHNPFR, peptide start residue: 482)”, which log2 fold change is on record?
**A.** 0.279

**Q.** “UniProt P03030 (peptide sequence: QLLDQLFTEHQVK, peptide start residue: 205)” was tested. Which log2 fold change did it give?
**A.** 0.328

**Q.** For “UniProt P06610 (peptide sequence: FLVGRDGK, peptide start residue: 150)”, which log2 fold change is on record?
**A.** 0.231

**Q.** For “UniProt P00944 (peptide sequence: RMEEHLR, peptide start residue: 37)”, which log2 fold change is on record?
**A.** 0.475

**Q.** “UniProt P00936 (peptide sequence: HYLNELELYR, peptide start residue: 72)” was tested. Which log2 fold change did it give?
**A.** -0.763

**Q.** With “UniProt P00895 (peptide sequence: AGEIFQVVPSRR, peptide start residue: 258)” as the target, how does the log2 fold change read?
**A.** -0.262

**Q.** With “UniProt P05100 (peptide sequence: ACFHQFDPVKVAAMQEEDVER, peptide start residue: 58)” as the target, how does the log2 fold change read?
**A.** -0.667

**Q.** With “UniProt P05050 (peptide sequence: DINDVASQSPFR, peptide start residue: 36)” as the target, how does the log2 fold change read?
**A.** 1

**Q.** “UniProt P05042 (peptide sequence: SEKDSMGAIDVPADKLWGAQTQR, peptide start residue: 6)” was tested. Which log2 fold change did it give?
**A.** -0.239

**Q.** With “UniProt P06134 (peptide sequence: YALADCELGR, peptide start residue: 191)” as the target, how does the log2 fold change read?
**A.** 0.374

**Q.** With “UniProt P05458 (peptide sequence: MAQVSAETINPAHPGSK, peptide start residue: 181)” as the target, how does the log2 fold change read?
**A.** 0.431

**Q.** Which log2 fold change does the source give for “UniProt P03023 (peptide sequence: VVNQASHVSAK, peptide start residue: 23)” here?
**A.** 0.159

**Q.** “UniProt P00448 (peptide sequence: DFGSVDNFKAEFEK, peptide start residue: 106)” was tested. Which log2 fold change did it give?
**A.** 0.452

**Q.** How did the log2 fold change turn out when “UniProt A5A607 (peptide sequence: AYTSIKSDEE, peptide start residue: 55)” was run?
**A.** 0.116

**Q.** “UniProt P00803 (peptide sequence: QAAAQAAAGDSLDK, peptide start residue: 35)” was tested. Which log2 fold change did it give?
**A.** -0.118

**Q.** For “UniProt P00909 (peptide sequence: LLASVFQTLR, peptide start residue: 442)”, which log2 fold change is on record?
**A.** -0.919

**Q.** For “UniProt P02942 (peptide sequence: GFAVVAGEVR, peptide start residue: 395)”, which log2 fold change is on record?
**A.** 0.151

**Q.** “UniProt P05827 (peptide sequence: LTTGDAADAMEK, peptide start residue: 124)” was tested. Which log2 fold change did it give?
**A.** -0.344
